Laboratory results taken from article PMC7910580.
No constants are given. Whether binding was seen depends on the method and setting. For some assays here: In cells and extracts the contact can be indirect. Some results given as binding are weak or reduced against the parent protein; the word gives no strength.

Sequences of proteins named here, by UniProt entry; tags and fusion partners are left off. A change or cut given only in a name is not applied to a line headed by its entry.
UniProt Q8NEB9: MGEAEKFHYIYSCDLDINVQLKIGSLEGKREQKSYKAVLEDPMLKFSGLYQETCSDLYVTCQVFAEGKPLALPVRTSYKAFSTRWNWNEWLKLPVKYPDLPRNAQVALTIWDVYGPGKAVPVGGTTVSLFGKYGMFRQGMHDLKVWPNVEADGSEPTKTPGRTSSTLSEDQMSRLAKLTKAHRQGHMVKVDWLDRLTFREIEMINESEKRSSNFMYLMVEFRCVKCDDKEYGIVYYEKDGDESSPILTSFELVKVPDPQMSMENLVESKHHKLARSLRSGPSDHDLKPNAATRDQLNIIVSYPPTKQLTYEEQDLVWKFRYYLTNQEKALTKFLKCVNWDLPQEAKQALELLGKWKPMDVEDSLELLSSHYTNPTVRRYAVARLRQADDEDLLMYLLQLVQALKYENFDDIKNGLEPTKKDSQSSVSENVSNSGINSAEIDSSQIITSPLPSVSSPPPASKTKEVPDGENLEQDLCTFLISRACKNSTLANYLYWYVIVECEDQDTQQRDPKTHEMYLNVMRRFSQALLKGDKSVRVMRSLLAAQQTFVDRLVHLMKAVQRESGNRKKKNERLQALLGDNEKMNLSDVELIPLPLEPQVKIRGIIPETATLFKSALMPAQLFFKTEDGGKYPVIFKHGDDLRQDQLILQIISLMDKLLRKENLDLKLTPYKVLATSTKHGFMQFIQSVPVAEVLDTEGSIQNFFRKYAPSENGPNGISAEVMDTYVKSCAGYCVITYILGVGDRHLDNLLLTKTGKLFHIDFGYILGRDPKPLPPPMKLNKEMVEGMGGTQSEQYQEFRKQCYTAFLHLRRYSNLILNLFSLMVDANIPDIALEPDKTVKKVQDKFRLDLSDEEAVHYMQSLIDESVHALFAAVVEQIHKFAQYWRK
UniProt Q15386: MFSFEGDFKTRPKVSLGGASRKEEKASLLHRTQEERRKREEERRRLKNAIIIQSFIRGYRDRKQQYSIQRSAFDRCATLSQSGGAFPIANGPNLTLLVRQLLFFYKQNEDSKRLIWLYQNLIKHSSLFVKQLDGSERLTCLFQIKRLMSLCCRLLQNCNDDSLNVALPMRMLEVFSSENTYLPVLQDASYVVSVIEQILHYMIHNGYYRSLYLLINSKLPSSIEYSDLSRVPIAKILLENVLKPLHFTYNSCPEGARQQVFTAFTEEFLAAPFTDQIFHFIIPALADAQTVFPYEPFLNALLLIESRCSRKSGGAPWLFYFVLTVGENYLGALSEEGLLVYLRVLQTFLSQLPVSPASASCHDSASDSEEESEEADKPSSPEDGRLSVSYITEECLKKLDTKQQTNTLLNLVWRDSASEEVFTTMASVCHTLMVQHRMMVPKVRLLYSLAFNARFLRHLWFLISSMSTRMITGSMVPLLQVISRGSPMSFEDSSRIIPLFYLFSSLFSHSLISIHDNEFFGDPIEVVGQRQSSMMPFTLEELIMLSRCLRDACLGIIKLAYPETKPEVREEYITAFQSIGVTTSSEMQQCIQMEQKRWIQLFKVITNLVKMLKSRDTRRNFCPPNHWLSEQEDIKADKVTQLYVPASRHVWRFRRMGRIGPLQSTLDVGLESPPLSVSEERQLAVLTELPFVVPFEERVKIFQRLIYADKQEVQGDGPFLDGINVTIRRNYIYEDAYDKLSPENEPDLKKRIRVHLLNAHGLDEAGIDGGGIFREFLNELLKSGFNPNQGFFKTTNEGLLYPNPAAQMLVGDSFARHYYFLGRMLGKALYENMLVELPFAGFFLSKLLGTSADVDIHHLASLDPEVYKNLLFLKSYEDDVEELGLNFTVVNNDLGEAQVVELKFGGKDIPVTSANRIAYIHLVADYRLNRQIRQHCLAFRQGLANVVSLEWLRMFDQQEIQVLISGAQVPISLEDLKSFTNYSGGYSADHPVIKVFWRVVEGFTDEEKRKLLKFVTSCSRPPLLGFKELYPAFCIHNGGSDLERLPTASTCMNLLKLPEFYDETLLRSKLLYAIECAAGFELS

Assays:
Flag-VPS34 (baculovirus) = Flag-VPS34 (baculovirus) (UniProt Q8NEB9); experiment: pull-down; Flag-VPS34 immobilized on anti-Flag M2 beads, incubated with purified HA-UBE3C for 30 min in 50 mM Tris pH 7.5, 150 mM NaCl, 1% NP40; western blot; both purified
[1] = biological target: VPS34 (endogenous) (human (endogenous in 293T)) (UniProt Q8NEB9); experiment: co-IP; endogenous proteins in 293T lysates, antibodies and protein A Sepharose; cells untreated, starved (EBSS) or treated for 30 min with thapsigargin, tunicamycin, MG132, 17-DMAG, 17-AAG or puromycin

Substance | binding (Flag-VPS34 (baculovirus)) | binding [1]
HA-UBE3C (from UniProt Q15386-1 1-1083) (enzyme) | binds | –
UBE3C (endogenous) (from UniProt Q15386 1-1083) (enzyme) | – | binds
